## Assay results

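Luminescence from an EWS-FLI1 target-promoter (NR0B1) reporter, set against a CMV-promoter reporter, two days after silencing single genes in TC32 Ewing sarcoma cells. Each siRNA was applied at 20 nM. A z-score of the log NR0B1-over-CMV signal, less the median of siRNAs with the same seed; more negative means a stronger specific loss of the NR0B1 reporter.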

The strongest results of the screen are mostly left out here. Sequences are the guide (antisense) strand, without overhang.

| Sequence | target gene | seed-corrected z-score |
|---|---|---|
| `UUACGUAACUUUUGAAGCC` | TMEM57 | -0.572 |
| `UCAUAGUUCAGGAUUUCUG` | STK17B | 0.3868 |
| `AACAUGUUUAGGGUCGUUG` | SETD5 | -0.3582 |
| `AAUCUGACCACAGGUACCC` | DISP1 | -0.541 |
| `ACUGGUGUAGGUAGGAUCG` | EPHB3 | -0.2113 |
| `UAUCCUUUUCUUUAGGGAC` | DEFB115 | -0.558 |
| `UGGUUUUACAUGGAGUUGC` | ZNF114 | -1.009 |
| `UUUUGAUCUCGAUCUGCUC` | EVI5L | 0.2486 |
| `UUCUGCAUCGGAAUUGUCU` | TULP2 | -0.2933 |
| `AUAAGAAUUCGGUCCUUGC` | TALDO1 | -0.9849 |
| `UAUUUGCGCACAAUCGACC` | KIAA0895L | -0.5724 |
| `UUUAGCUCGAUGGUCCUCC` | GRIK5 | 0.2246 |
| `AGAUAGACAAGGAAAGACG` | KCNQ5 | -0.8029 |
| `UAAGCUUGAUUGUCCAGCC` | PALM2 | 1.516 |
| `AACCUGGUAGUUCUCAAGC` | TAL2 | -0.4485 |
| `UCAGGAUAAAGGGAGGCAC` | RITA1 | 1.854 |
| `UCAGUUCAUAGUGGUUUGG` | TTLL1 | 0.0005283 |
| `UCAGGUUCAGCCGUGCAAU` | NINJ2 | -0.3614 |
| `UAUAGUUCUUGGUCCCUGC` | TARS | -0.7524 |
| `AGAAUAUUAUCAGUCAAAU` | PAGE2 | -0.2315 |
| `UGCUCAUAGAGUAAUGUUG` | FBXO43 | -0.2326 |
| `UAAUGCGAAAAAUGAAGAG` | GJB2 | 0.1333 |
| `UAAGGUGUGCUUGUUUGCG` | ZNF501 | -0.1606 |
| `UGAAGUUUCAUCGCAGUAC` | ROR1 | -0.3483 |
| `UUAGUCUCCUCCAUUUAGC` | HHEX | 0.02358 |
| `AAACUCACACUGGAACGGC` | ZIC2 | -0.1434 |
| `UCUUGGACGUAGAUAAGUG` | OR2L8 | 0.01244 |
| `AAUGUAGACAGCCUUUUCC` | CYSLTR1 | -0.9603 |
| `AUAUGUUCCGCAAUUAGGC` | ESCO1 | -0.07433 |
| `UCGUCACUGACAGUGGUGG` | EIF3G | 0.4822 |
| `UCAGGUCUAAAGCCGUCAC` | PRTFDC1 | -0.4172 |
| `UGAGCACCUGCGAGAAAGC` | SNAPC2 | 0.5648 |
| `UCACGUAGCACUUAGGCAG` | TAS1R1 | 1.69 |
| `AUGAGCACGAUAAAAAUGC` | GRIK5 | -0.7136 |
| `UCUCUGUCCAGGAUGCGUC` | TMEM186 | 0.6125 |
| `UGACUUGAGCGCAUUCUGC` | HOXD13 | -0.5311 |
| `UCUGAAAUGACCAAUGAUG` | TTI2 | 1.185 |
| `UUCUUGACCAUUGGUCCUG` | CARD11 | -0.08073 |
| `UGAUGGACAACCAAUGGAU` | TM9SF1 | -0.4658 |
| `UAGGAGAACGAUGAGCUGG` | CLCN7 | -0.6243 |
| `UUGUUGAAGCUGUAGACUG` | ZNF207 | 0.0009139 |
| `UUUGUUCCCGAGUAGAAAC` | JUND | 2.294 |
| `UAAUCGCACUGGUCAAAGC` | VCAN | -0.6821 |

Repeated from the top, 5 entries:

{"sequence": "UUACGUAACUUUUGAAGCC", "target gene": "TMEM57", "seed-corrected z-score": "-0.572"}
{"sequence": "UCAUAGUUCAGGAUUUCUG", "target gene": "STK17B", "seed-corrected z-score": "0.3868"}
{"sequence": "AACAUGUUUAGGGUCGUUG", "target gene": "SETD5", "seed-corrected z-score": "-0.3582"}
{"sequence": "AAUCUGACCACAGGUACCC", "target gene": "DISP1", "seed-corrected z-score": "-0.541"}
{"sequence": "ACUGGUGUAGGUAGGAUCG", "target gene": "EPHB3", "seed-corrected z-score": "-0.2113"}

Source: PubChem BioAssay AID1159506 (NCATS, 2015).